These are yes or no findings as the source states them, for the method shown. In cells and extracts the contact can be indirect. Some results given as binding are weak or reduced against the parent protein; the word gives no strength. Sequences can lack the tags named with a protein.
Biological target: T1, BRP44 with a C-terminal 6×His-tag (UniProt Q9D023)
T1 sequence (chain, crosslinked with the 125I-labelled photoprobe MSDC-1101 (residue not stated)): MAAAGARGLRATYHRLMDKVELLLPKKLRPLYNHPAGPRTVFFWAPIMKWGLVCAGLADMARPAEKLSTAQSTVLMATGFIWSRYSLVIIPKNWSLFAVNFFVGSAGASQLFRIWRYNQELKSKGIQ
Assay: co-IP; solubilized, MSDC-1101-crosslinked mitochondria from HEK293 cells stably expressing BRP44-6×His; immunoprecipitated with anti-His agarose beads; partners shown by Western blots and mass spectrometry (not shown)

Chains of the proteins cited; added tags and fusions are not shown.
UniProt O95563: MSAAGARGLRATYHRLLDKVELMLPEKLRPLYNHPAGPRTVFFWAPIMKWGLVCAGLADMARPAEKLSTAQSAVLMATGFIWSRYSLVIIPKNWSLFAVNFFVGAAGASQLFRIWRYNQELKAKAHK

binding: binds
Substance: native BRP44 (from UniProt O95563 1-127)

Reference: article PMC3655167
